# ± gives the standard deviation of the averaged measurements. Only a part is listed here, and it is no random draw. Small differences around the control level are noise.
# Amino acid sequences for entries named in this document (tags omitted). A change or cut given only in a name is not applied to a line headed by its entry.
# UniProt Q13188: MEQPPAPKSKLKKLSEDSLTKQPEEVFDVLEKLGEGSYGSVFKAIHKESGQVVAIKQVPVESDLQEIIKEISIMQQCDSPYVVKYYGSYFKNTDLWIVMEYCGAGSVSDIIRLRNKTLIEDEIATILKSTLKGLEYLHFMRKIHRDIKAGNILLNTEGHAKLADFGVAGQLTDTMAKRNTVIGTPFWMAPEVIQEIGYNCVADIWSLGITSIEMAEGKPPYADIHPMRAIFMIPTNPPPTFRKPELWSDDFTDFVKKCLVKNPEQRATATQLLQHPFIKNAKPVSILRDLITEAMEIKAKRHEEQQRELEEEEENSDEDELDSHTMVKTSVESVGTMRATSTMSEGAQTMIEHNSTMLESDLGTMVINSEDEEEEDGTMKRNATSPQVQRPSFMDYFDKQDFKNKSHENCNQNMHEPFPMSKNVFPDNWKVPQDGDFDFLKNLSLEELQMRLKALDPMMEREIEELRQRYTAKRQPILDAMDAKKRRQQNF
# UniProt Q12769: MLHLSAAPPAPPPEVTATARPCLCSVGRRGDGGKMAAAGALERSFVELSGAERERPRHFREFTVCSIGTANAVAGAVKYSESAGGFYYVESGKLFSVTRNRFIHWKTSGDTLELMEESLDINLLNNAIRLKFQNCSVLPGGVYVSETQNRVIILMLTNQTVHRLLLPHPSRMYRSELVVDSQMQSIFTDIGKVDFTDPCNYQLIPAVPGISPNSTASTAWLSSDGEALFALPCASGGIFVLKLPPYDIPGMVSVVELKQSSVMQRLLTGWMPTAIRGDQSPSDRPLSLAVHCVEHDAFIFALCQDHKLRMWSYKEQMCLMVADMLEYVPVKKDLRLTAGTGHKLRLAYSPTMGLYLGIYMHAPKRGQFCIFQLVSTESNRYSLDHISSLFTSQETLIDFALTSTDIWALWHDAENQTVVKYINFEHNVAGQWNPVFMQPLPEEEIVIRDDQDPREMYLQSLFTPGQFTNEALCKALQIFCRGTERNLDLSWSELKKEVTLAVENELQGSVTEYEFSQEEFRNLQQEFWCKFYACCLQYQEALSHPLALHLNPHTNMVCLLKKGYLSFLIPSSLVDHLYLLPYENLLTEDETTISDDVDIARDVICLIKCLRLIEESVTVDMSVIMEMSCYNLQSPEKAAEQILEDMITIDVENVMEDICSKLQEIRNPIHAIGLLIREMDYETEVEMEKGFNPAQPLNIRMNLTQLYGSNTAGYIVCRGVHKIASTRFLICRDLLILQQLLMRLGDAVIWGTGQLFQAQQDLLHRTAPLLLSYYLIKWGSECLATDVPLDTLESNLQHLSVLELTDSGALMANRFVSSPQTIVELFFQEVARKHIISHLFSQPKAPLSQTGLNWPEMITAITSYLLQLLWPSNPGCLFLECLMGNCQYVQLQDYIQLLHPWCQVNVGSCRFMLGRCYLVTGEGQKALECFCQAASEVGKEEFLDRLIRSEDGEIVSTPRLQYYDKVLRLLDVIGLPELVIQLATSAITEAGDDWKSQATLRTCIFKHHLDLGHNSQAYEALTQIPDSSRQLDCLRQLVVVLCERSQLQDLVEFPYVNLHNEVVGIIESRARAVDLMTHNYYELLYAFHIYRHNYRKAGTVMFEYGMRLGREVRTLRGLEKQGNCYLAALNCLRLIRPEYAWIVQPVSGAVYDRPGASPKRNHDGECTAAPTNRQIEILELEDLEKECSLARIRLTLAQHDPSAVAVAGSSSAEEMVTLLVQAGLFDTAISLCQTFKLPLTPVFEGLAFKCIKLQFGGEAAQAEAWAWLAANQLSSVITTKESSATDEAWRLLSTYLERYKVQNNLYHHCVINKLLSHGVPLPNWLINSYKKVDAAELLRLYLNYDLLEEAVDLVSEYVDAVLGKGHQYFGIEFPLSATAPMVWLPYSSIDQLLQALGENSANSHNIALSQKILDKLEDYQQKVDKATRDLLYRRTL
# UniProt Q13332: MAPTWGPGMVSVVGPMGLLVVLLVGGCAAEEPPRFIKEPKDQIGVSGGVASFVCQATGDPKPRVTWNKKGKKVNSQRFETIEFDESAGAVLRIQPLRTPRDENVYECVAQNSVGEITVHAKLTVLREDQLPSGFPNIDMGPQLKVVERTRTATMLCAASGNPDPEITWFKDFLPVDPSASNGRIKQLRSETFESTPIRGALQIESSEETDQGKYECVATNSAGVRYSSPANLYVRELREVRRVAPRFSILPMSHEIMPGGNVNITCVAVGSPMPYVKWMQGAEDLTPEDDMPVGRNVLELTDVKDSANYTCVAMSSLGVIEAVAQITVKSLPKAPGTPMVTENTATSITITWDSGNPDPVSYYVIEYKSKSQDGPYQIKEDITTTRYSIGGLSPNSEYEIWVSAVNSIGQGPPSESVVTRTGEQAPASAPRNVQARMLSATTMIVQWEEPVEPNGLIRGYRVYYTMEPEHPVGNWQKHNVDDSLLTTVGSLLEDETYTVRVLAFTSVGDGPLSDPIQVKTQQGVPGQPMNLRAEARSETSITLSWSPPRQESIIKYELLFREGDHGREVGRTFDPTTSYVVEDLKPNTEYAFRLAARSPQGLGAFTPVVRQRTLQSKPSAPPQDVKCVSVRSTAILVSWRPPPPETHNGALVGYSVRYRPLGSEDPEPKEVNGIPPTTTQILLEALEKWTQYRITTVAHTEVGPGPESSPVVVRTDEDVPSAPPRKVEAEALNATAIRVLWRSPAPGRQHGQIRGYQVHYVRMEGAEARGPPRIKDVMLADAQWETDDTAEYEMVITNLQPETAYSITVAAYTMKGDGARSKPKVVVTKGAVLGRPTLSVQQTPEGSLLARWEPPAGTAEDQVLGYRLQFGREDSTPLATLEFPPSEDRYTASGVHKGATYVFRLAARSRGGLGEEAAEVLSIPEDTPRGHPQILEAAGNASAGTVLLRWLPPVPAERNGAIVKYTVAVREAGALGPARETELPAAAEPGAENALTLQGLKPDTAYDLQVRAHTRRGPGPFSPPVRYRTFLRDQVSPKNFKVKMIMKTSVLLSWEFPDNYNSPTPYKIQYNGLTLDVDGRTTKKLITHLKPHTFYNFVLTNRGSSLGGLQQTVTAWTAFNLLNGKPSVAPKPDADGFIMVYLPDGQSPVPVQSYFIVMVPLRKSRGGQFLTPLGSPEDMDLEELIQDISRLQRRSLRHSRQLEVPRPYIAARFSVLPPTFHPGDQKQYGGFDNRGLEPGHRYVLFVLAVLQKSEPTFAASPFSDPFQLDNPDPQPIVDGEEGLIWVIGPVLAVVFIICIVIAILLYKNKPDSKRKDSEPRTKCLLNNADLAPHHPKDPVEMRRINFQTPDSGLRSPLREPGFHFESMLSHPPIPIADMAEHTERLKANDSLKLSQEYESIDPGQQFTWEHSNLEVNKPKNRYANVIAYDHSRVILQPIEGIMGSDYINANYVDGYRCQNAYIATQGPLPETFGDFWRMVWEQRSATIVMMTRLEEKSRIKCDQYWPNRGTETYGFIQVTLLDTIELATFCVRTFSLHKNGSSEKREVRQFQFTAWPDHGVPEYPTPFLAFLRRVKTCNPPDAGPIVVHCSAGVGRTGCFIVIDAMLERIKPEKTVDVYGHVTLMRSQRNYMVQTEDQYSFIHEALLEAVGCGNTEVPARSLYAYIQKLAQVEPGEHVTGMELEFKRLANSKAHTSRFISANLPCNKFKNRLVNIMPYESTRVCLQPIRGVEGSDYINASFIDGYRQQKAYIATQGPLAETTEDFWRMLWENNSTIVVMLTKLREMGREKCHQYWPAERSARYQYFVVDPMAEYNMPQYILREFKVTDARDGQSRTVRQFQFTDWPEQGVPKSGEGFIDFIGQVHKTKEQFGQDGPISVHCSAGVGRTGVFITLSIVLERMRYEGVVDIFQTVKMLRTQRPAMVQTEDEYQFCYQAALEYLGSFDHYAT
# UniProt Q15025: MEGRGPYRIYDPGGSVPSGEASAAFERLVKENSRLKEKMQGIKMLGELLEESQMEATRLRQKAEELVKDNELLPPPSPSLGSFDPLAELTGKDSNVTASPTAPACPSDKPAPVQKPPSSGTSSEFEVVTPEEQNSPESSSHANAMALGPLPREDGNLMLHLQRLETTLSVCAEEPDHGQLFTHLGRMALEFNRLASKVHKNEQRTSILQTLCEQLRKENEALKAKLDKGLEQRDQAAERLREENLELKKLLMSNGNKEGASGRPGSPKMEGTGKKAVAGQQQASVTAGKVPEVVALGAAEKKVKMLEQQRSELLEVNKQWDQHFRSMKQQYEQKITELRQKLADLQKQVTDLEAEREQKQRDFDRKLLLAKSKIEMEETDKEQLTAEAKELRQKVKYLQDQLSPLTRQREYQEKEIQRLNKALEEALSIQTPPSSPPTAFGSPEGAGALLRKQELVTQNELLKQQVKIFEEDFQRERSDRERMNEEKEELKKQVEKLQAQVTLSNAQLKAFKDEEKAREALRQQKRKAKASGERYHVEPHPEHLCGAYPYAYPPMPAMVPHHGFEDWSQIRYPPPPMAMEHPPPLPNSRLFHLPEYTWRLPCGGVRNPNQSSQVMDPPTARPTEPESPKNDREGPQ
# UniProt Q13795: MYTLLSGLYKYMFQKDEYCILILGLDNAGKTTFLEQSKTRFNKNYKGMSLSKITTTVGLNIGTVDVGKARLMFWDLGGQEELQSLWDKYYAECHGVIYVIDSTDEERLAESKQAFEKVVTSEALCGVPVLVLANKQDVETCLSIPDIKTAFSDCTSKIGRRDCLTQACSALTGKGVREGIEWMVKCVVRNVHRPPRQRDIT
# UniProt Q13409, whole entry: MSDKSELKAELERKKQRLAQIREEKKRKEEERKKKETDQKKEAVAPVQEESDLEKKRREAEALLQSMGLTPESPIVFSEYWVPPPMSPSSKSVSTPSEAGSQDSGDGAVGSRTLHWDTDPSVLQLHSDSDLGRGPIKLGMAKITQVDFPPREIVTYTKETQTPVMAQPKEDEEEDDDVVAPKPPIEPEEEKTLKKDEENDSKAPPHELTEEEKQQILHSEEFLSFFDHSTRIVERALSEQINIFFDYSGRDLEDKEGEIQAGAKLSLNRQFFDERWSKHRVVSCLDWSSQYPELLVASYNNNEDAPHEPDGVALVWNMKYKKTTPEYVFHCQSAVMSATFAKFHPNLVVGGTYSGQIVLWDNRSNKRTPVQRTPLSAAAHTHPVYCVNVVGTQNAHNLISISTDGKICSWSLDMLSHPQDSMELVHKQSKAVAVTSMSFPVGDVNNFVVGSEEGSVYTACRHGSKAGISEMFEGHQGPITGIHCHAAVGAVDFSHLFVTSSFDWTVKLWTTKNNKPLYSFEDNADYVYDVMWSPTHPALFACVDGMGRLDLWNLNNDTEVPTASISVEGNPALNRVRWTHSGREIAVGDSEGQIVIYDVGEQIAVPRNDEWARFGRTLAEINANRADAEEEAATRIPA
# UniProt Q14156: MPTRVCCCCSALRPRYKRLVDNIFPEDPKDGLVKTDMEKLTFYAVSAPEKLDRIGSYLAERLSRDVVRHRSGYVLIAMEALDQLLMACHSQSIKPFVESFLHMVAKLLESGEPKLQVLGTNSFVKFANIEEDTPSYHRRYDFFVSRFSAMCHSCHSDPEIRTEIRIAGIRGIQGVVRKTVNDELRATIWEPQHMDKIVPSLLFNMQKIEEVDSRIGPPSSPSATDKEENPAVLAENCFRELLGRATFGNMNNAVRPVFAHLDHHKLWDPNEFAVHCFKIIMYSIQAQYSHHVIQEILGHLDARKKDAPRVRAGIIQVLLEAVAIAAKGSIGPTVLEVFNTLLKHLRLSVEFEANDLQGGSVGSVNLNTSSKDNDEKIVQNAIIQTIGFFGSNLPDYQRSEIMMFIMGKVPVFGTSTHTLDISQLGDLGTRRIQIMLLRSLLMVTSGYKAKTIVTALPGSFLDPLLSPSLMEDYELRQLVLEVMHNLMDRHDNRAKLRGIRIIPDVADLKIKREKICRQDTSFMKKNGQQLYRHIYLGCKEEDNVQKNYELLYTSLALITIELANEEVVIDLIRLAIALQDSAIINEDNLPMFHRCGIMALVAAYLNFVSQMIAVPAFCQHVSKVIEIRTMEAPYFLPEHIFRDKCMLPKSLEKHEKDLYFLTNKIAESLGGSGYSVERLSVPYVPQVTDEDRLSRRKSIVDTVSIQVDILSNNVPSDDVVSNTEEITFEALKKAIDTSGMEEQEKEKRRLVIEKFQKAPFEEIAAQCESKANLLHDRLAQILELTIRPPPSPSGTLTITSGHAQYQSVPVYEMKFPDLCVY
# UniProt Q12907: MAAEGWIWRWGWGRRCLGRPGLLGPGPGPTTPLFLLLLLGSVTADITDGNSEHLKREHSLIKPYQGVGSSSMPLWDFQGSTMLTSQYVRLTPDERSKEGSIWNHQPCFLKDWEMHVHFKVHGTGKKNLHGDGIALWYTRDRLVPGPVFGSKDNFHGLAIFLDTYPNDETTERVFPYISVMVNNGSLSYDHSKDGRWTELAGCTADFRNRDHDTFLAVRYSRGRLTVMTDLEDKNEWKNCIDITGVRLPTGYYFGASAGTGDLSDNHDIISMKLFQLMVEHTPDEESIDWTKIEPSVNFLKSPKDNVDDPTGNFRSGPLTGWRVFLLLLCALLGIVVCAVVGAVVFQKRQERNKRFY
# UniProt Q14061: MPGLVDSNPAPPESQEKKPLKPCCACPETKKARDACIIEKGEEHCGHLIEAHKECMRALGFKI
# Compound: Nc1ncnc2c1ncn2[C@@H]1O[C@H](COP(=O)(O)OP(=O)(O)NP(=O)(O)O)[C@@H](O)[C@H]1O [adenylyl imidodiphosphate]
# Test: NP40-soluble protein abundance relative to vehicle (solubility fold change) (ratio); higher = more soluble protein in presence of AMP-PNP
# Procedure, shortened: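 Each value is a fold change relative to the detergent-processed vehicle, calculated per replicate from vsn-normalised intensities. Jurkat crude lysate received eight concentrations (0.1 to 10 mM) for 10 min at room temperature and 3 min at 37 °C, then was solubilised in 0.8% NP40 with benzonase (60 min, 4 °C). The ultracentrifuged supernatant was TMT-labelled and run by LC-MS/MS in three independent experiments.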
Target,NP40-soluble protein abundance (concentration: 0.1mM),NP40-soluble protein abundance (concentration: 0.5mM)
UniProt Q12824,1.02 ± 0.076,0.963 ± 0.071
LAPTM5 (UniProt Q13571),0.96 ± 0.036,0.985 ± 0.026
UniProt Q13188,0.982 ± 0.023,0.976 ± 0.049
LGALS3BP (UniProt Q08380),1.01 ± 0.031,0.981 ± 0.047
MORC3 (UniProt Q14149),0.99 ± 0.02,1.01 ± 0.032
UniProt Q12769 and related entries,1.02 ± 0.031,0.973 ± 0.064
TTLL12 (UniProt Q14166),1.029 ± 0.0028,1.02 ± 0.049
UniProt Q14139 and related entries,0.996 ± 0.017,0.979 ± 0.012
GRAP (UniProt Q13588),1.01 ± 0.034,0.971 ± 0.053
UniProt Q14142 and related entries,0.984 ± 0.017,0.9776 ± 0.0068
NMI (UniProt Q13287),0.992 ± 0.021,0.984 ± 0.034
UniProt Q13332 and related entries,0.998 ± 0.019,0.99 ± 0.028
PSMD2 (UniProt Q13200),0.978 ± 0.045,0.95 ± 0.087
TBL3 (UniProt Q12788),1.04 ± 0.029,1.04 ± 0.048
UniProt Q13242,0.973 ± 0.034,1.05 ± 0.068
CHAF1B (UniProt Q13112),1.01 ± 0.036,0.989 ± 0.029
UniProt Q13363 and related entries,0.992 ± 0.015,1.03 ± 0.033
UniProt Q15025 and related entries,0.9718 ± 0.0088,0.992 ± 0.053
RAB33A (UniProt Q14088),0.997 ± 0.03,0.998 ± 0.038
USP4 (UniProt Q13107),0.977 ± 0.033,0.969 ± 0.013
Q13888 and related entries (UniProt Q6P1K8+Q13888),1.05 ± 0.034,1 ± 0.057
BECN1 (UniProt Q14457),0.9904 ± 0.0073,1.01 ± 0.042
TRA2A (UniProt Q13595),0.994 ± 0.09,0.989 ± 0.067
TSTA3 (UniProt Q13630),0.987 ± 0.026,0.964 ± 0.013

Target,NP40-soluble protein abundance (concentration: 0.1mM),NP40-soluble protein abundance (concentration: 0.5mM)
MLLT11 (UniProt Q13015),0.979 ± 0.03,0.982 ± 0.02
UniProt Q14807 and related entries,1.04 ± 0.033,1.07 ± 0.031
UniProt Q13795 and related entries,0.98 ± 0.036,1 ± 0.051
PDCL (UniProt Q13371),1.04 ± 0.012,0.993 ± 0.021
MDC1 (UniProt Q14676),0.9902 ± 0.0073,1.05 ± 0.032
EIF3I (UniProt Q13347),0.996 ± 0.015,1.01 ± 0.028
UniProt Q09028 and related entries,1.03 ± 0.046,0.986 ± 0.027
ECH1 (UniProt Q13011),0.9807 ± 0.0093,1 ± 0.036
UniProt Q14197 and related entries,1.06 ± 0.064,0.993 ± 0.065
UniProt Q13057 and related entries,1.01 ± 0.024,0.9983 ± 0.0075
RRS1 (UniProt Q15050),1.03 ± 0.018,0.979 ± 0.022
UniProt Q12981 and related entries,1 ± 0.032,0.999 ± 0.016
MAD2L1 (UniProt Q13257),1.04 ± 0.044,1 ± 0.1
UniProt Q15018,0.986 ± 0.018,0.995 ± 0.036
UniProt Q13409-3|Q13409-2,0.989 ± 0.034,0.974 ± 0.059
UniProt Q14240 and related entries,1.06 ± 0.054,1.077 ± 0.0067
BRD3 (UniProt Q15059),0.979 ± 0.04,1.03 ± 0.027
SNTB2 (UniProt Q13425),1.04 ± 0.061,0.9802 ± 0.0086
NCBP1 (UniProt Q09161),1.04 ± 0.028,1.01 ± 0.021
UniProt Q14642 and related entries,1 ± 0.026,0.998 ± 0.029
UniProt Q14CB8 and related entries,1 ± 0.016,0.996 ± 0.022
PAK1 (UniProt Q13153),0.947 ± 0.011,1.01 ± 0.037
MRPL49 (UniProt Q13405),1.04 ± 0.047,1.04 ± 0.022
UniProt Q14558-2|Q14558,0.969 ± 0.048,0.884 ± 0.076

Target,NP40-soluble protein abundance (concentration: 0.1mM),NP40-soluble protein abundance (concentration: 0.5mM)
UniProt Q14746 and related entries,0.987 ± 0.026,0.961 ± 0.058
UniProt Q13501 and related entries,1.01 ± 0.051,1.02 ± 0.037
SCRN1 (UniProt Q12765),0.997 ± 0.011,0.99 ± 0.023
DDX10 (UniProt Q13206),0.987 ± 0.024,1.01 ± 0.048
CDC20 (UniProt Q12834),0.998 ± 0.028,1.03 ± 0.022
UniProt Q14156 and related entries,0.99 ± 0.013,0.979 ± 0.023
LMAN2 (UniProt Q12907),1.02 ± 0.035,0.983 ± 0.072
UniProt Q13029 and related entries,0.986 ± 0.032,0.981 ± 0.039
UniProt Q14318-2|Q14318,1.02 ± 0.028,1.03 ± 0.032
UniProt Q13574 and related entries,0.996 ± 0.015,0.978 ± 0.014
GALNT2 (UniProt Q10471),0.988 ± 0.029,0.985 ± 0.032
UniProt Q15046,1 ± 0.052,0.976 ± 0.076
UniProt Q15118 and related entries,1.05 ± 0.02,1.04 ± 0.032
ADAM9 (UniProt Q13443),0.988 ± 0.035,0.959 ± 0.0089
MVP (UniProt Q14764),1.04 ± 0.038,1.02 ± 0.034
UniProt Q13642-1|Q13642-4|Q13642-5,0.9723 ± 0.0095,0.969 ± 0.025
UniProt Q14684 and related entries,1.021 ± 0.0086,1.02 ± 0.014
UniProt Q14247 and related entries,1.02 ± 0.023,1.07 ± 0.029
PMPCA (UniProt Q10713),1.03 ± 0.049,0.977 ± 0.055
LASP1 (UniProt Q14847),1 ± 0.026,1.05 ± 0.047
UniProt Q14005 and related entries,0.997 ± 0.033,0.973 ± 0.017
CPSF1 (UniProt Q10570),1.043 ± 0.0076,0.99 ± 0.058
ACAP1 (UniProt Q15027),1.02 ± 0.036,1.01 ± 0.068
MGAT5 (UniProt Q09328),0.994 ± 0.035,0.976 ± 0.021

Target,NP40-soluble protein abundance (concentration: 0.1mM),NP40-soluble protein abundance (concentration: 0.5mM)
UniProt Q14562,1.04 ± 0.037,0.994 ± 0.049
UniProt Q13627 and related entries,0.977 ± 0.015,1.01 ± 0.023
UniProt Q14004 and related entries,0.996 ± 0.03,1.04 ± 0.03
THOC5 (UniProt Q13769),1.2 ± 0.082,1.25 ± 0.16
COX17 (UniProt Q14061),0.996 ± 0.035,0.972 ± 0.036
UniProt Q15054 and related entries,1.01 ± 0.021,0.984 ± 0.026
UBE2V1 (UniProt Q13404),1.03 ± 0.019,1.02 ± 0.066
IFIT5 (UniProt Q13325),0.97 ± 0.06,0.995 ± 0.017
CHAF1A (UniProt Q13111),0.998 ± 0.034,1.01 ± 0.077
NPAT (UniProt Q14207),1 ± 0.032,1.03 ± 0.037
FRG1 (UniProt Q14331),1.02 ± 0.019,1.01 ± 0.015
DAG1 (UniProt Q14118),1.02 ± 0.056,1.05 ± 0.094
GINS1 (UniProt Q14691),0.986 ± 0.016,1 ± 0.019
EXOSC7 (UniProt Q15024),1.02 ± 0.017,0.991 ± 0.084
UniProt Q15006,1 ± 0.029,0.985 ± 0.049
UniProt Q14790 and related entries,0.984 ± 0.042,0.992 ± 0.025
SUZ12 (UniProt Q15022),1.01 ± 0.026,0.9696 ± 0.0066
PRPF4B (UniProt Q13523),1.05 ± 0.058,1.04 ± 0.061
UniProt Q13952 and related entries,1 ± 0.028,0.984 ± 0.03
HNRNPA0 (UniProt Q13151),1.01 ± 0.055,1.04 ± 0.059
ITPR3 (UniProt Q14573),1.01 ± 0.043,0.973 ± 0.035
MGAT2 (UniProt Q10469),1 ± 0.014,0.987 ± 0.025
UniProt Q15084 and related entries,0.953 ± 0.033,0.969 ± 0.023
UniProt Q13472 and related entries,1.02 ± 0.015,1.01 ± 0.052

Target,NP40-soluble protein abundance (concentration: 0.1mM),NP40-soluble protein abundance (concentration: 0.5mM)
TARDBP (UniProt Q13148),0.981 ± 0.032,1.01 ± 0.03
ITPR2 (UniProt Q14571),1.01 ± 0.03,0.98 ± 0.069
PDIA5 (UniProt Q14554),0.9817 ± 0.0091,0.99 ± 0.029
TUBB3 (UniProt Q13509),0.992 ± 0.015,1.01 ± 0.08
UniProt Q13459 and related entries,1.05 ± 0.043,1.05 ± 0.046
UniProt Q13085 and related entries,1.03 ± 0.022,0.978 ± 0.095
UniProt Q12770 and related entries,1.001 ± 0.0061,0.998 ± 0.012
UniProt Q13555-2|Q13555-8|Q13555-9|A0A0A0MT11|Q13555 and related entries,0.985 ± 0.024,0.957 ± 0.046
BMS1 (UniProt Q14692),1.03 ± 0.039,1.03 ± 0.034
PWP1 (UniProt Q13610),1.04 ± 0.016,1.04 ± 0.03
G3BP1 (UniProt Q13283),1.03 ± 0.011,1.066 ± 0.0018
UniProt Q13422 and related entries,0.999 ± 0.039,1 ± 0.016
UniProt Q14155-1|B1ALK7,1.01 ± 0.012,0.997 ± 0.022
UniProt Q15057 and related entries,1.011 ± 0.0098,0.995 ± 0.015
TMEM115 (UniProt Q12893),0.964 ± 0.034,0.968 ± 0.044
GNL2 (UniProt Q13823),0.992 ± 0.052,1.01 ± 0.046
PIN1 (UniProt Q13526),1 ± 0.032,1.04 ± 0.054
SF3A3 (UniProt Q12874),0.981 ± 0.019,1.03 ± 0.03
UniProt Q13905 and related entries,0.956 ± 0.02,0.9891 ± 0.0025
UniProt Q15013 and related entries,0.989 ± 0.011,1.013 ± 0.0039
UniProt Q15056-2|Q15056,0.978 ± 0.019,0.978 ± 0.058
SNW1 (UniProt Q13573),0.988 ± 0.015,1.02 ± 0.054
DNAJC3 (UniProt Q13217),0.974 ± 0.016,0.984 ± 0.016
SMC1A (UniProt Q14683),0.981 ± 0.049,1.02 ± 0.071

# Given with tabs: entries from further up.
Target	NP40-soluble protein abundance (concentration: 0.1mM)	NP40-soluble protein abundance (concentration: 0.5mM)
G3BP1 (UniProt Q13283)	1.03 ± 0.011	1.066 ± 0.0018
UniProt Q13422 and related entries	0.999 ± 0.039	1 ± 0.016
UniProt Q14155-1|B1ALK7	1.01 ± 0.012	0.997 ± 0.022
UniProt Q15057 and related entries	1.011 ± 0.0098	0.995 ± 0.015
TMEM115 (UniProt Q12893)	0.964 ± 0.034	0.968 ± 0.044
GNL2 (UniProt Q13823)	0.992 ± 0.052	1.01 ± 0.046
PIN1 (UniProt Q13526)	1 ± 0.032	1.04 ± 0.054
